Laboratory results published in publication PMC4312036.
Results are given in words; binding and its absence hold for the method and conditions named. For some of these results: In cells and extracts the contact can be indirect. Some entries that bind do so weakly or less than the wild type. Where a sequence is shown, tags or fusion partners need not be part of it. One block for each molecule: values may come before it.

Protein sequences, listed by entry. Tags and fused reporters are not part of them.
UniProt Q39026: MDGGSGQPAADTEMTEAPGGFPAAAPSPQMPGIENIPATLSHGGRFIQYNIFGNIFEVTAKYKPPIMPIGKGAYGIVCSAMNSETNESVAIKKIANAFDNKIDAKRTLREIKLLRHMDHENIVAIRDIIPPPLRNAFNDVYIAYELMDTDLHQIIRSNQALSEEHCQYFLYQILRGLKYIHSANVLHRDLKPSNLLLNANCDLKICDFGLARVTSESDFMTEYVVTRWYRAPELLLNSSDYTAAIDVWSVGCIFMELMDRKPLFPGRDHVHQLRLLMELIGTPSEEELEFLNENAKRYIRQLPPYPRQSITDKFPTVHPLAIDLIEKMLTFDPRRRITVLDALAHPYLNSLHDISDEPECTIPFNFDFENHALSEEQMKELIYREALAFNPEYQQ

What was measured:
GST-AGB1 (Arabidopsis) = biological target: T1, GST-AGB1 (Arabidopsis) (UniProt P49177); assay: pull-down; GST fusion protein bound to glutathione sepharose 4B, incubated with purified His fusion protein in 20 mM HEPES pH 7.4, 1 mM EDTA, 5 mM MgCl2, 1 mM DTT, 0.1% Triton X-100, 1 mg/ml BSA, 1 mM PMSF, 4 h at 4°C; blot with HisProbe-HRP; both purified
T1 sequence: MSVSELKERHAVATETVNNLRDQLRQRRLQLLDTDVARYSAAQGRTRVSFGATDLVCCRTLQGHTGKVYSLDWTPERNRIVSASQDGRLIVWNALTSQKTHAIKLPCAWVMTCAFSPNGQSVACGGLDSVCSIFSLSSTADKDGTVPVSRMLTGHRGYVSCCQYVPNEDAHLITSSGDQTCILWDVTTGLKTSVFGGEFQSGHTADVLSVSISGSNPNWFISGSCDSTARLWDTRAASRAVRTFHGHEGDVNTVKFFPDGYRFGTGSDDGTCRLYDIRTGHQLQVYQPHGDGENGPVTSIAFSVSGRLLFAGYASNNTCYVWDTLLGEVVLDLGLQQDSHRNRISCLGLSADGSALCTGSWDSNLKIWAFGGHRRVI

AGB1-YFP^N (Arabidopsis) = biological target: T2, AGB1-YFP^N (Arabidopsis) (UniProt P49177); assay: split reporter; BiFC with split YFP (pSPYNE-AGB1 and pSPYCE-MPK6) in protoplasts of Arabidopsis Col-0; 23°C, 16-20 h; confocal microscopy
T2 sequence: T1 sequence

BD-MPK6 (Arabidopsis) = BD-MPK6 (Arabidopsis) (UniProt Q39026); assay: two-hybrid; direct test: AtMPK6 in pGBKT7 and AGB1 in pGADT7 co-transformed into yeast AH109; growth on SD/-Leu/-Trp/-His/-Ade, 3 d at 30°C
MPK6-Myc (Arabidopsis) = MPK6-Myc (Arabidopsis) (UniProt Q39026); assay: co-IP; AGB1-Flag and MPK6-Myc transiently co-expressed in Arabidopsis protoplasts; lysate precipitated with anti-Myc agarose, 3 h at 4°C; blot with anti-Flag

- binding (GST-AGB1 (Arabidopsis)): binds
Molecule: His-MPK6 (from UniProt Q39026 1-395)

- binding (AGB1-YFP^N (Arabidopsis)): binds
Molecule: MPK6-YFP^C (from UniProt Q39026 1-395)

- binding (BD-MPK6 (Arabidopsis)): binds
B1: AD-AGB1 (protein, UniProt P49177 1-377)
chain: T1 sequence

- binding (MPK6-Myc (Arabidopsis)): binds
B2: AGB1-Flag (protein, UniProt P49177 1-377)
chain: T1 sequence
